# Assays:
# Type in all cases: functional
# Kasumi 1 [1] = experiment: Antitumor activity against human Kasumi-1 cells xenografted in CB17 SCID mouse assessed as inhibition of tumor growth at 10 mg/kg, po QD for 29 days; settings: Kasumi 1, po, 696 h, time 29 day, read-out: TGI
# Kasumi 1 [2] = experiment: Antitumor activity against human Kasumi-1 cells xenografted in CB17 SCID mouse assessed as inhibition of tumor growth at 40 mg/kg, po QD for 25 days; settings: Kasumi 1, po, 600 h, time 25 day, read-out: TGI
# Kasumi 1 [3] = experiment: Antitumor activity against human Kasumi-1 cells xenografted in CB17 SCID mouse assessed as inhibition of tumor growth at 10 mg/kg, po QD for 25 days; settings: Kasumi 1, po, 600 h, time 25 day, read-out: TGI
structure (smiles),measurement,setting,value
CCNC(=O)C[C@@H]1N=C(c2ccc(Cl)cc2)c2cc(OC)ccc2-n2c(C)nnc21 [MOLIBRESIB],inhibition in vivo at 10 mg/kg,Kasumi 1 [1],85.6%
same,inhibition in vivo at 40 mg/kg,Kasumi 1 [2],97.4%
same,inhibition in vivo at 10 mg/kg,Kasumi 1 [3],79.7%
